Data taken from PMC10915761.

Protein sequences, listed by entry. Tags and fused reporters are not part of them.
UniProt Q69ZR9: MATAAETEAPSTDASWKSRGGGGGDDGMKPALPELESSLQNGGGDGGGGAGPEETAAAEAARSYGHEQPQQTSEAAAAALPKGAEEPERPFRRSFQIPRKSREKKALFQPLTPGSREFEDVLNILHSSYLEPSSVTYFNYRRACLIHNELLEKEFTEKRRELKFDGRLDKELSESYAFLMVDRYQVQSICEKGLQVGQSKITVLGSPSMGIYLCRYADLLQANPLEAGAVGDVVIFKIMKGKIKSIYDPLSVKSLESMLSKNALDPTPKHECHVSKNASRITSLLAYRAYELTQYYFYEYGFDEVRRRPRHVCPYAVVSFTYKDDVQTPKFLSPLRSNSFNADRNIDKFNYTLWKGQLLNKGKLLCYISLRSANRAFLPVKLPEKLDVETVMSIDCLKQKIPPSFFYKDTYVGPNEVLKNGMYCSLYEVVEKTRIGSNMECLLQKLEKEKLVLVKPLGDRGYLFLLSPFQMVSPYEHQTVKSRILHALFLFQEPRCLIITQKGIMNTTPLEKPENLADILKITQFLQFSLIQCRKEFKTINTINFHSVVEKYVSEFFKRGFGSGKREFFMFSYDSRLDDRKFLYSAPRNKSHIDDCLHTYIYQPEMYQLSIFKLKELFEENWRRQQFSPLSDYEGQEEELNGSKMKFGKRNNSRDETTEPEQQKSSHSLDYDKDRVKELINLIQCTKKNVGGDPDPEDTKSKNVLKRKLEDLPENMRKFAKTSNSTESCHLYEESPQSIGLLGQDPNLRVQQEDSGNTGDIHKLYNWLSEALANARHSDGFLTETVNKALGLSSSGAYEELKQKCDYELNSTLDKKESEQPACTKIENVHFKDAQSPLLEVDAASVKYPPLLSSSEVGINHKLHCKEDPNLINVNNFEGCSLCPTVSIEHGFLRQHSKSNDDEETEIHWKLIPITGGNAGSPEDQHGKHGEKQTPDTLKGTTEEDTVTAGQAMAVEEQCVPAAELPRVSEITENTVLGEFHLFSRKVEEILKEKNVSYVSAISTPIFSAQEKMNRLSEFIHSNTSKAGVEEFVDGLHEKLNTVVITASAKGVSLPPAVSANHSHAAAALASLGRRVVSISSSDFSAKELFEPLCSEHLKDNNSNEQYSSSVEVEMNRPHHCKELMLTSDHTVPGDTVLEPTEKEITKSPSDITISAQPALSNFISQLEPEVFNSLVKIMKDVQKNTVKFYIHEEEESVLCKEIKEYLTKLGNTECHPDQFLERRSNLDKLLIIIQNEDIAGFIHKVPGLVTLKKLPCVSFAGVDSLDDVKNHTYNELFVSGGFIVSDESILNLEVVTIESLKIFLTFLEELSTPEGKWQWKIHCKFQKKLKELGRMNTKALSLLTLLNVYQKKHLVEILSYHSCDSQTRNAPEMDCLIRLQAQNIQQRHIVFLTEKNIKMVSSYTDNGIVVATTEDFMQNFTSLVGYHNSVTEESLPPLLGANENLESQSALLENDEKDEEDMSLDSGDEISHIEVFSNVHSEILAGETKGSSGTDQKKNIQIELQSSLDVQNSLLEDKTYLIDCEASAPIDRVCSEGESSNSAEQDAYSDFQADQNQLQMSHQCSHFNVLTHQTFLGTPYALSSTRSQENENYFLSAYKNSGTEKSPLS
UniProt Q8BFQ4: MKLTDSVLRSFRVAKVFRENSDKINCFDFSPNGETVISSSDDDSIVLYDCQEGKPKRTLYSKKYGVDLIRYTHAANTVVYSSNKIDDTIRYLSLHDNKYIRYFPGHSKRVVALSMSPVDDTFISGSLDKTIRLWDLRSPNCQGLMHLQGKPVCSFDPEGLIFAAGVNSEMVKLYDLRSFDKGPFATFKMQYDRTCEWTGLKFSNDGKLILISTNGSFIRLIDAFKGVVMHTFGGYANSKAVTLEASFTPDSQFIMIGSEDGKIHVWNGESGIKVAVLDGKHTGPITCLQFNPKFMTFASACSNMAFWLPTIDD

T1: MPP8-AGH (MPP8 endogenously tagged at the C terminus with AID-GFP-HAx3) (mouse (endogenous in R1 mESCs)) (UniProt Q3TYA6)
T1 sequence: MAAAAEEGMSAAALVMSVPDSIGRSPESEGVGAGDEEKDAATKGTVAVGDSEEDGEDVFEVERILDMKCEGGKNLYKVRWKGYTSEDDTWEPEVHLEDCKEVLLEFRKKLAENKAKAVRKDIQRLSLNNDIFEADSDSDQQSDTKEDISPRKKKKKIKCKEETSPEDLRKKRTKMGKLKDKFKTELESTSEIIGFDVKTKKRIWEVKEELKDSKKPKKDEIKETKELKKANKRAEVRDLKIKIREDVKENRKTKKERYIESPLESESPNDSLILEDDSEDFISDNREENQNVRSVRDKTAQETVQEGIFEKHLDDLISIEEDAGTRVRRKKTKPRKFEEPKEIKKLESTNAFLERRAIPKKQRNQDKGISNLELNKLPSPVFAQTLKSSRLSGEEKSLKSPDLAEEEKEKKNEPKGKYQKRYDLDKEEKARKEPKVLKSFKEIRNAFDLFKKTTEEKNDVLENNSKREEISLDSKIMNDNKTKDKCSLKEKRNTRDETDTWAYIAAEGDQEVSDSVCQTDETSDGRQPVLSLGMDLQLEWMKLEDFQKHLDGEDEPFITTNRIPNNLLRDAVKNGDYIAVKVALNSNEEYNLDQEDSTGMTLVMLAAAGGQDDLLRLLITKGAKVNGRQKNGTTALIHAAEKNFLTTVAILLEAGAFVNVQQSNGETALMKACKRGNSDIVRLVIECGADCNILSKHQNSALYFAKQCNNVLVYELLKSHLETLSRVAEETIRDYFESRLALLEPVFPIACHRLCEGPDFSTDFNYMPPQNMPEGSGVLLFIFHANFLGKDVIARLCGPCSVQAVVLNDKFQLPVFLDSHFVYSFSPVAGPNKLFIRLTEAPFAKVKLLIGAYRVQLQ


Legend:
[1] = biological target: T1, MPP8-AGH (MPP8 endogenously tagged at the C terminus with AID-GFP-HAx3) (mouse (endogenous in R1 mESCs)); assay: affinity purification with mass spectrometry; HA IP from TASOR-AGH or MPP8-AGH mESCs against untagged control mESCs; label-free quantification (LFQ)
[2] = biological target: TASOR-AGH (TASOR endogenously tagged at the C terminus with AID-GFP-HAx3) (mouse (endogenous in R1 mESCs)) (UniProt Q69ZR9); assay: as above

binding [1]	binding [2]	Molecule
binds	binds	WDR82 (from UniProt Q8BFQ4 1-313)
binds	–	ATF7IP (protein, UniProt Q7TT18 1-1306) MDSVEEPQKKVFKARKTMRASDRQQLDAVHRVKGELLRADGKLLNGSHENGDLDPTSPLENTDCIQDREEVNGIDGICFQSEESTTEWKETPCMPNVAVKNKQEDLNSEALSPSITCDLSSRVTTEPGSGSPASDNPGCGTPVSDNPASDNPASDNPASDNPDSGDLAAGELATTVQATGDSACEEPPSSDPSSSDPTSSEPSSSEPTCSEPISGDPVSEEAASHDLVSGDSTCSEPVSGEPVSHEAASSEPATSEPASDEPVARVVAACELAPGESALDDCAPSGDSQSDEPPSSEDSLPRSVCSGLASGELTPGELSVEPATDTVKPSSSAVCEAGPDPDKTEPSSNNSDDCPGKSEDDEHLDQIQSKDSCDEGNKVNSNVVEKEEPLETHSAIICSDLPPENTTKIAEDPIAEPALEEEAISSSMEVDQSEKDEHKSPAEPVAAVSEDPAEEDKEDTVVDNTDSMETDEIIPILEKLAPTEDELSCFSKASLLPVETSQDLEDKMEGSFGSPSKQESSENLPKEAFLVLSDEEDLSCGKDESEAVAQSKMSTPEGEKSEKDGKAEEEERVPAEEQPPVRNEFSRRKRSKSEDMDSVESKRRRYMDEEYEAEFQVKITAKGDINQKLQKVIQWLLQEKLCALQCAVFDKTLAELKTRVEKIECNKRHKAVLTELQAKIARLTKRFGAAKDDLKKRQESPPNPPISPGKPANDTNSNNNMTYRNAGTVRQLLESKRNVSEGPPPSFQTPVNTVSSASHATSTAVVSSQPKLQTSATSGSLPAAPLLPAPSTATVVATTQVPSGTPQPTISLQPLPVILHVPVAVTSQPQLLQSHPGTLVTNQPSGNVEFISVQSQPTVSGLTKNPVSLPPLPNPTKPNIPSVPSPSSIQRNSSTTAAPLGTTLAVQAVPTAHSIVQATRTSLPTVGPSGLYSSSSSRGPIQMKIPISTFSPPSSAEQNSSATPRIVTENQTNKTVDSSINKKAADSTSQSGKASSSDSSGVIDLTMDDEESGTTQDPKKISPPSSSTVSTSQPMSRPLQPILPAPPLQPSGVPTSGPSQATIHVLPTAPTTVNVTHRPVTQVTTRLPVPRAPANHQVVYTTLPAPTTQAPLRGTVMQAPAVRQVNPQNSVTVRVPQTTTYVVNNGLTLGSAGPQLTVHHRPPQVHNEPPRPLHPAPLPEAPQPQRLPPEAASTSLPQKPHLKLARVQSQNGIVLSWSVLEVDRSCATVDSYHLYAYHEEPSATVPSQWKKIGEVKALPLPMACTLTQFVSGSKYYFAVRAKDIYGRFGPFCDPQSTDVISSSQNS
binds	binds	FIP1L1 (protein, UniProt Q9D824 1-581) MSAGEVERLVELSGGTGGDEEEEWLYGGPWDVHVHSDLAKDLDENEVERPEEENASANPPSGIEEEAAENGVAKPKVTETEDDSDSDSDDDEDDVHVTIGDIKTGAPQYGSYGTAPVNLNIKAGGRVYGNTGTKVKGVDLDAPGSINGVPLLEVDLDSFEDKPWRKPGADLSDYFNYGFNEDTWKAYCEKQKRIRMGLEVIPVTSTTNKITVQQGRTGNSEKEAALPSTKAEFTSPPSLFKTGLPPSRNSTSSQSQTSTASRKASSSVGKWQDRYGRAESPDLRRLPGAIDVIGQTITISRVEGRRRANENSNIQVLSDRSATEVDNNFSKPPPFFPPGAPPTHLPPPPFLPPPPTVSTAPPLIPPPGIPITVPPPGFPPPPGAPPPSLIPTIESGHSSGYDSRSARAFPYGNVAFPHLTSSAPSWPSLVDTTKQWDYYARREKDRDRDRERDRDRERERDRDRERERTRERERERDHSPTPSVFNSDEERYRYREYAERGYERHRASREKEERHRERRHREKEETRHKSSRSNSRRRHESEEGDSHRRHKHKKSKRSKEGKEAGSEPVPEQESTEAAPAE
binds	binds	PPHLN1 (periphilin) (protein, UniProt Q8K2H1 1-381) MWSEGRYDYDRLPRERVPPRSHPSDGYHRVVNVVPKRPPLLDKRPPLLDKRPPLLARPDEGGYSRYYSHVDCRVCDEGRSFSHDRRSGPSHSGDESGYRWLRDDHSTSRQPDYRDMRDGFRRKSFYSSHYSRDRSPHKRDAPFFRESPVGRKDSPHSRSGSSVSSRSYSPERSRTHSFHQSQHRKSSRVGASYKRQNEAIRGRGKERSIQSVKTSRDASPSSSSAVASSKALDKPSRLTEKELAEAESKWANETLEKSDESNLAEMNEFEAGSTAPLFIDQTEEPESNTVDGTELYEDSQLSNRSKAIASKTKEIEQVYRQDCETFGMVVKMLIEKDPSLEKSVQFALRQNLHEIGERCVEELKRFITEYDNSARDFGDPF

These are yes or no findings as the source states them, for the method shown. Binding seen in cells or lysates may run through a third protein. A yes stands for co-enrichment or nearness to the bait. Other partners may have been found. For some of these results: Sequences can lack the tags named with a protein.
